Experimental findings from patent US5468486A, “Vaccine containing a protein alkaloid conjugate for the treatment of fescue toxicosis” (priority 1994, dated 1995) are described below.

In this series the test system is antiserum produced against the ergonovine KLH conjugate. Briefly: Competitive ELISA. Format: binding, rabbit. Conditions: linear regression of competitive ELISA. The method, then: Antiserum preparation: Three female New Zealand white rabbits were immunized with the HSA-ergonovine conjugate and two with the KLH-ergonovine conjugate. Initially, each rabbit was injected with 1 mg of the respective conjugate in 1 ml of phosphate buffered saline that had been emulsified with an equal amount of Freund's complete adjuvant. Booster injections of 0.2 mg of conjugate per rabbit, emulsified with Freund's incomplete adjuvant, were given at 5 and 10 weeks after the first injections. The rabbits were bled 8 and 16 days after each booster injection. Serum was collected after two cycles of low speed centrifugation. Serum from each rabbit was pooled before testing in the competitive enzyme linked immunosorbent assay (ELISA).
Competitive ELISA: Duplicate polystyrene ELISA plates were numbered and rinsed once with distilled water. The HSA-ergonovine conjugate [[…] in carbonate coating buffer (0.5μsodium carbonate, pH 9.6)] was pipetted into each well ([…]). After 2H at 30° C. the plates were washed 4 times quickly with physiologically buffered saline (PBS) Tween (0.02M phosphate, 0.15M NaCl, 3 mM KC1+0.05% TWEEN 20, pH 7.3). All subsequent rinse steps were done with PBS-Tween. Serial dilutions were made of […] compounds used in the competitive assay. All dilutions were made in PBS-Tween. These compounds and their initial concentrations were: agroclavine 0.5 mM, ergocryptine at 100 μM, unconjugated ergonovine at 1 μM, ergotamine at 100 μM, ergovaline at 10 μM, lysergol at 10 mM, dihydroergotamine at 200 μM and IAA at 1 mM. After placing 100 μl of each dilution in duplicate wells, an additional 100 μl of antiserum, produced against the ergonovine KLH conjugate, was added to each well at a dilution of 1:1000 and mixed. The plates were incubated for 2 H at 30° C. and again rinsed 4 times quickly. Protein-A alkaline phosphatase (0.5 μg/ml in PBS-Tween) was placed in wells (200 μl/well) and incubated for 2 H at 30° C. The plates were again rinsed 4 times. Substrate, SIGMA 104® phosphatase substrate (5 mg/ml), in 10% diethanolamine, pH 9.6 was added to each well (150 μl/well). The reaction was stopped after 30 min. with 3M NaOH (75 μl/well). The plates were read on a DYNATECH MINIREADER II® reader. Mean values were calculated from duplicate wells per plate and duplicate plates were averaged. From these values a percent maximal absorbance level was calculated.
The compound `CC(C)[C@H]1C(=O)N2CCC[C@H]2[C@]2(O)O[C@@](C)(NC(=O)[C@@H]3C=C4c5cccc6[nH]cc(c56)C[C@H]4N(C)C3)C(=O)N12` [ergovaline] returned a Slope of -15.5.

`CN1C[C@H](CO)C=C2c3cccc4[nH]cc(c34)C[C@H]21` [lysergol]: the Slope is -13.7.

With `CN1C[C@H](C(=O)N[C@]2(C)O[C@@]3(O)[C@@H]4CCCN4C(=O)[C@H](Cc4ccccc4)N3C2=O)C=C2c3cccc4[nH]cc(c34)C[C@H]21` [ergotamine], the Slope was -16.1.

For the compound `CN1C[C@H](C(=O)N[C@]2(C)O[C@@]3(O)[C@@H]4CCCN4C(=O)[C@H](Cc4ccccc4)N3C2=O)C[C@@H]2c3cccc4[nH]cc(c34)C[C@H]21` [dihydroergotamine], the Slope is given as -22.5.

Compound `CC(C)C[C@H]1C(=O)N2CCC[C@H]2[C@]2(O)O[C@](NC(=O)[C@@H]3C=C4c5cccc6[nH]cc(c56)C[C@H]4N(C)C3)(C(C)C)C(=O)N12` [ergocryptine] registered a Slope of -19.7.

`C[C@@H](CO)NC(=O)[C@@H]1C=C2c3cccc4[nH]cc(c34)C[C@H]2N(C)C1` [ergonovine] showed a Slope of -26.4.

The compound `CC1=C[C@@H]2c3cccc4[nH]cc(c34)C[C@H]2N(C)C1` [agroclavine] returned a Slope of -19.4.
